Assay results: patent US6740662B1, “Naphthyridine derivatives” (Yamanouchi Pharmaceutical Co., Ltd., priority 1999, dated 2004)
Some results were stated once for a whole list of compounds, not compound by compound.

System: type IV PDE
Experiment: Type IV PDE inhibitory activity
Type: biochemical
Conditions: type IV PDE purified from rat ventricle muscle; 1 μM cAMP, 30° C., 10 minutes

Question: How did the IC50 turn out when CCn1c(=O)c(CCC(=O)O)c(-c2cccc(C)c2)c2ccc(C)nc21 [Example 77, 3-[1-ethyl-7-methyl-4-(3-methylphenyl)-2-oxo-1,2-dihydro-1,8-naphthyridin-3-yl]propanoic acid] was run?
Answer: Its IC50 is at most 11 nM.
